Laboratory results published in patent US20170015742A1.
These are yes or no findings as the source states them, for the method shown. Some results given as binding are weak or reduced against the parent protein; the word gives no strength.

Amino acid sequences for entries named in this document (tags omitted). Residues count along the entry.
UniProt P01127, residues 82-190: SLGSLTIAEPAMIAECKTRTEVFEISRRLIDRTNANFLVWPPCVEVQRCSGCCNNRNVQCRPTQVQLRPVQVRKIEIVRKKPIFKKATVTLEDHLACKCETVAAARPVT

B1: BEW-5C3-E7 (antibody, IgG2b, V domains shown)
VH: QIQLVQSGPELKKPGESVKISCKASGYTFTNYGVYWVKQAPGQGLQYMGWINTETGKPTYADDFKGRFVFFLETSTNTAYLQINNLKNEDMATFFCARARQLDWFVYWGQGTLVTVSS
VL: DTVLTQSPALTVSPGERVSISCRARESLTTSLCWFQQKPGQQPKLLIYGASKLESGVPARFSGSGSGTDFTLTIDPVEADDTATYFCQQSWYDPPTFGGGTKLELK
B2: BEW-164-C4 (antibody, IgG2b, V domains shown)
VH: QIQLVQSGPELKKPGESVKISCKASGYSFTNYGMYWVKQAPGQGLQYMGWIDTETGKPTYTDDFKGRFVFFLETSASTAYLQINNLKNEDMATYFCARWSGDTAGIRGPWFAYWGQGTLVTVSS
VL: DIRMTQSPASLSASLGETVNIECLASEDIYSDLAWYQQKPGKSPQLLIYNANDLQKGVPSRFSGSGSGTQYSLKINSLQSEDVATYFCQQYNYYPGTFGAGTKLELK
B3: BEW-9E10-E7 (antibody, IgG2a, V domains shown)
VH: QIQLLQSGPELKKPGESVKISCKASGYTFTNYGMYWVKQAPGQGLQYMGWIDTETGRPTYADDFKGRFVFFLETSASTAYLQINNLKNEDMATYFCARWSGDTTGIRGPWFAYWGQGTLVTVSS
VL: DIRMTQSPASLSASLGETVNIECLASEDIYSDLAWYQQKPGRSPQLLIYNANGLQNGVPSRFGGSGSGTQYSLKINSLQSEDVATYFCQQYNYFPGTFGAGTKLELK
B4: BEW-8E6-E4 (antibody, IgG2a, V domains shown)
VH: QIQLVQSGPELKKPGESVKISCKASGYTFTDYAMHWVKQAPGKVLKWMGWINTFTGKPTYIDDFKGRFVFSLEASASTANLQISDLKNEDTATYFCARGNYYSGYWYFDFWGPGTMVTMSS
VL: DIQMTQSPASLSASLGETISIECRASEDISSNLAWYQQKSGKSPQLLIFAANRLQDGVPSRFSGSGSGTQFSLKISGMQPEDEGDYFCLQGSKFYTFGAGTKLELK
B5: BEW-10H2-B9 (antibody, IgG2b, V domains shown)
VH: QIQLVQSGPELKKPGESVKISCKASGYSFTNFGLYWVKQAPGQGLQYMGWIDTETGKPTYADDFRGRFVFFLETSASTAYLQINNLKNEDMATYFCARVYGYPSWYFDFWGPGTMVTVSS
VL: DIQMTQSPASLSTSLEEIVTITCQASQDIDNYLSWYQQKPGKSPQLLIHSATSLADGVPSRFSGSRSGTQFSLKIHRLQVEDTGIYYCLQHFFPPWTFGGGTKLELK
B6: BEW-1E3-D6 (antibody, IgG2b, V domains shown)
VH: QIQLVQSGPELKKPGESVKISCKASGYPFTNSGMYWVKQAPGQGLQYMGWINTEAGKPTYADDFKGRFVFFLETSASTAYLQINNLKNEDMATYFCARWGYISDNSYGWFDYWGQGTLVTVSS
VL: DTVLTQSPALAVSPGERVSISCRASEGVYSYMHWYQQNPGQQPKLLIYKASNLASGVPARFSGSGSGTDFTLTIDPVEADDTATYFCHQNWNDPLTFGSGTKLEIK
B7: BEW-9E3-B9 (antibody, IgG2a, V domains shown)
VH: QIQLVQSGPELKKPGESVKISCKASGYTFTNYGMYWVKQAPGQGLQYMGWINTETGKPTYADDFKGRFVFFLETSASTAFLQINNLKNEDMATYFCARPSDYYDGFWFPYWGQGALVTVSS
VL: DTILTQSPALAVSPGERISISCRASEGVNSYMHWYQQNPGQQPKLLIYKASNLASGVPARFSGSGSGTDFTLTIDPVEADDTATYFCQQSWNDPLTFGSGTKLEIK
B8: BEW-6C2-C8 (antibody, IgG2b, V domains shown)
VH: EVQLVESGGGLVQPGSSLKLSCAASGFTFSYYGMHWIRQAPKKGLEWMALIYYDSSKMYYADSVKGRFTISRDNSKNTLYLEMNSLRSEDTAMYYCAAGGTAPVYWGQGVMVTVSS
VL: NIQLTQSPSLLSASVGDRVTLSCKGSQNIANYLAWYQQKLGEAPKLLIYNTDSLQTGIPSRFSGSGSGTDYTLTISSLQPEDVATYFCYQSNNGYTFGAGTKLELR
B9: BEW-9A8-E2 (antibody, IgG2a, V domains shown)
VH: QIQLVQSGPELKKPGESVKISCKASGYTFTNYGMYWVKQAPGQGLQYMGWINTETGKPIYADDFKGRFVFFLETSASTAYLQINNLKNEDMATFFCARVDYDGSFWFAYWGQGTLVTVSS
VL: DTVLTQSPALAVSPGERVSISCRASESVSTVIHWYQQKPGQQPKLLIHGASNLESGVPARFSGSGSGTDFTLTIDPVEADDTATYFCQQHWNDPPTFGAGTKLEMK
B10: BDI-5H1-F6 (antibody, IgG2b, V domains shown)
VH: QVTLKESGPGILQPSQTLSLTCTFSGFSLSTFGMGVGWIRQPSGKGLEWLANIWWDDDKYYNPSLKNRLTISKDTSNSQAFLEITNVDTADTATYYCARISTGISSYYVMDAWGQGASVTVSS
VL: QFTLTQPKSVSGSLRSTITIPCERSSGDIGDTYVSWYQQHLGRPPINVIYGNDQRPSEVSDRFSGSIDSSSNSASLTITNLQMDDEADYFCQSYDSDIDIVFGGGTKLTVL
B11: BEW-1B10-B9-C3 (antibody, V domains shown)
VH: EVQLVESGGGLVQPGRSLKLSCAASGFSFSKYDMAWFRQTPTKGLEWVASITTSGVGTYYRDSVKGRFTVSRDNAKSTLYLQMDSLRSEDTATYYCARGYGAMDAWGQGTSVTVSS
VL: DIQMTQSPASLSASLEEIVTITCKASQDIDDYLSWYQQKPGKSPQLVIYAATRLADGVPSRFSGSGSGTQYSLKISRLQVDDSGIYYCLQSSSTPWTFGGGTNLELK
B12: BEW-3A1-D10-G9 (antibody, V domains shown)
VH: QVQLEQSGAELVKPGTSVKLSCMASGYTSSSNHMNWMKQTTGQGLEWIGIINPGSGGTRYNVKFEGKATLTVDKSSSTAFMQLNSLTPEDSAVYYCARAGFPGPFSYYAMGAWGQGTSVTVSS
VL: DIQMTQSPPVLSASVGDRVTLSCKASQNIHNNLDWYQQKHGEAPKLLIFYTNNLQTGIPSRFSGSGSGTDYTLTISSLQPEDVATYYCYQYNSGYTFGAGTKLELK
B13: BEW-9E7-B4 (antibody, V domains shown)
VH: QIQLVQSGPELKKPGESVKISCKASGYTFTNYGMYWVKQAPGQGLQYMGWIDTETGKPTYADDFKGRFVFFLETSASTAYLQINNLRNEDMATYFCARWGYTSDYYYGWFPDWGQGTLVTVST
VL: DTVLTQSPALAVSPGERVSISCRASEGVNSYMHWYQQNPGQQPKLLIYKASNLASGVPARFSGSGSGTDFTLNIHPVEADDTATYFCQQNWNVPLTFGSGTKLEIK
B14: BEW-9D2-E8 (antibody, V domains shown)
VH: QIQLVQSGPELKKPGESVKISCKASGYTFTNYGMYWVKLAPGQGLQYLGWINTETGKPTYADDFKGRFVFFLETSASTAYLQINNLRNEDMATYFCARPSDYYDGFWFAYWGQGTLVTVSS
VL: DTVLTQSPALTVSPGERVSISCRASEWVNSYMHWYQQNPGQQPKLLIYKASNLASGVPARFSGSGSGTDFTLTLDPVEADDTATYFCQQSWNDPLTFGSGTKLEIK
B15: BEW-9C2-D6 (antibody, V domains shown)
VH: QIQLVQSGPELKKPGESVKVSCKASGYTFTNYGIHWVKQAPGQGLQYVGWINTETGRPTYADDFKGRFVFFLETSASTAYLQINNLKNEDMATYFCARPLYYGYAHYFDYWGQGVMVTVSS
VL: DIQMTQSPASLSASLEEIVTITCQASQDIGNWLAWYQQKPGKSPQLLIYGATSLADGVPSRFSGSRSGTQYSLKISRLQVEDIGIYYCQQASSVTYTFGAGTKLELK
B16: BED-4G10-C8 (antibody, V domains shown)
VH: QVQLQQSGTELVKPGSSVKISCKASGYTFTSNYMHWIRQQPGNGLEWIGWIYPGDGDTNYNHNFNGKATLTADKSSSTAYMQLSSLTSEDFAVYFCASSTRAIPGWFTYWGQGTLVTVSS
VL: DTVLTQSPALAVSPGERVSISCWASESVSTLMHWYQQKLGQQPKLLIYGASNLESGVPARFRGSGSGTDFTLTIDPVEADDTATYFCQQSWSDPYTFGAGTKLELK
B17: BDB-4G8-D4 (antibody, V domains shown)
VH: QIQLVQSGPELKKPGESVKISCKASGYTFTNYGMYWVKQAPGQGLQYMGWINTETGKPTYADDFKGRFVFFLETSASTAYLQINNLKNEDMATYFCARTNYYYRSYIFYFDYWGQGTMVTVSS
VL: DTVLTQSPALAVSPGERVSISCRASESVSTHMHWYQQKPGQQPKLLIYGASNLESGVPARFSGSGSGTDFTLTIDPVEADDTATYFCQQSWNDPFTFGAVTKLELK
B18: CL-33675-IgG (antibody, V domains shown)
VH: EVTLRESGPALVKPTQTLTLTCTFSGFSLSTYGMGVGWIRQPPGKALEWLANIWWDDDKYYNPSLKNRLTISKDTSKNQVVLTMTNMDPVDTATYYCARIESSGPKYSFDYWGQGTMVTVSS
VL: EIVLTQSPGTLSLSPGERATLSCRASSGSIWYSFVSWYQQKPGQAPRLLIYADDQRASGIPDRFSGSGSGTDFTLTISRLEPEDFAVYYCQSYGINIDVVFGGGTKVEIK

Biological target: Naturally derived human VEGF-A (human) (UniProt P15692)
Assay: sandwich ELISA, coated antibody, naturally derived huVEGF-A from Y-79 supernatant

binding, binds:
B1
B2
B3
B4
B5
B6
B7
B8
B9

Biological target: naturally derived human PDGF-BB (human) (UniProt P01127)
Assay: sandwich ELISA, antibody coated, native hPDGF-BB from platelets

binding, binds:
B10

Biological target: Human VEGF-A 165 (human) (UniProt P15692)
Assay: direct binding ELISA on biotinylated hVEGF165 captured on neutravidin plates

binding, binds:
B2

Biological target: recombinant human PDGF-BB (human) (UniProt P01127)
Assay: direct binding ELISA, biotin-hPDGF-BB on neutravidin plate

binding, binds:
B10

Biological target: Naturally derived human VEGF-A (human) (UniProt P15692)
Assay: sandwich ELISA, antibody coated, naturally derived huVEGF-A from Y-79 supernatant

binding, binds:
B11
B12
B13
B14
B15
B16
B17

Biological target: naturally derived ECM-associated PDGF-BB on HUVEC cells (human) (UniProt P01127)
Assay: immunofluorescence staining of fixed HUVEC cells, 33 nM

binding, binds:
B18
